The list shows a part of the results. The source does not settle which construct or isoform was used.

For this assay, the target named is T1, ETV4 (UniProt P43268).
T1 sequence: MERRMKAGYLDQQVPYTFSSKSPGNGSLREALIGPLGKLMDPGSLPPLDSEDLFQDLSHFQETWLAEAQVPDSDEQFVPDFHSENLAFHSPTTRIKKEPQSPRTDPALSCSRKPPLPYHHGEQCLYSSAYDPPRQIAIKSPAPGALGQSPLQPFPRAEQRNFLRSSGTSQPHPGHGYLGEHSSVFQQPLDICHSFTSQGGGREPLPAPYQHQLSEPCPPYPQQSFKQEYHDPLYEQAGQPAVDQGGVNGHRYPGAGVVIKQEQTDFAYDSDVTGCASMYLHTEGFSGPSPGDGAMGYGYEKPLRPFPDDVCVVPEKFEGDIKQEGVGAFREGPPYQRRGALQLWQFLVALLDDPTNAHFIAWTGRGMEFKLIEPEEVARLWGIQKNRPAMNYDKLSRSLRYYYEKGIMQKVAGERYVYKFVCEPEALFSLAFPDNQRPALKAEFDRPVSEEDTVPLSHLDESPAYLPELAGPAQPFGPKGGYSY
Nature of the assay: DAPPL (digital affinity profiling via proximity ligation, sequencing). The note with it: 10 mM Tris-HCl pH 7.5, 50 mM NaCl, 1 mM DTT, 4% glycerol, room temperature, 30 min; GST-TFs on glutathione beads, 16-mer random dsDNA library, 0.1% …; high values mean tight binding; double strand, one strand shown; scale: fold enrichment (6-mer frequency, TF over GST control).
In turn, TTTGAG had a binding signal of 1.04.

For the sequence ATGCGG, the binding signal came to 1.1.

The sequence ATACGT gave a binding signal of 1.02.

In turn, CCCGGA returned a binding signal of 2.57.

Sequence AAAGAC registered a binding signal of 1.06.

ATGAAT displayed a binding signal of 1.1.

Turning to TATATA, the binding signal was 1.26.

With CTTCAT, the binding signal was 1.44.

CTGTCA returned a binding signal of 1.15.

The sequence TTAAGT gave a binding signal of 1.23.

ATATTA showed a binding signal of 1.1.

Sequence ACGCTG gave a binding signal of 1.18.

In turn, CCCTCG had a binding signal of 1.26.

Turning to CTATAA, the binding signal stood at 1.28.

Sequence ATGATC came in with a binding signal of 1.23.

As to TGACTT, the binding signal worked out at 1.64.

Sequence TAAATA showed a binding signal of 1.15.

For CTGACT, the binding signal was 1.34.

AAATCC showed a binding signal of 1.48.

Take TATACT: the binding signal was determined as 1.35.

CTTAGG: the binding signal was determined as 1.11.

Regarding ACATGG, the binding signal is 1.05.

For TTGATT, the binding signal was 1.3.

In turn, TTAGCG had a binding signal of 0.969.

CTTTCT came in with a binding signal of 1.46.

Sequence TGTTTG yielded a binding signal of 1.39.

AATCAT had a binding signal of 1.08.

CGCTAC: the binding signal is 1.26.

Consider CGCGAC, for which the binding signal came out at 1.12.

As for CTACTT, the binding signal came out at 2.03.

As to GGGCTA, the binding signal worked out at 1.06.

ACATCC: the binding signal was 3.07.

TGCCTG had a binding signal of 1.18.

For TACCCA, the binding signal stood at 1.15.

For ATATAC, the binding signal was found to be 1.12.

In the case of CGTAAT, the binding signal was found to be 1.24.

Turning to TATCCG, the binding signal is 2.67.

In the case of CCGACC, the binding signal came to 1.51.

Sequence TTCAGC returned a binding signal of 1.23.

CCCCCG: the binding signal amounted to 1.19.
